8 compounds from paper PMC12276038, “Impact of Chelation on Reactivity and Cytotoxicity of Hemilabile Biphenyl Gold(III) N‐Heterocyclic Carbene Complexes” (Chemmedchem, 2025) can be followed below.

Settings in all cases: 1 equivalent, DMSO-d6, straight after mixing
The nature of data set [1]: NMR reactivity with N-acetyl methionine.
Data set [2] in a line: NMR reactivity with N-acetyl cysteine.
Data set [3] can be described thus: NMR reactivity with N-acetyl histidine.

Consider `CC(C)(C)c1ccc2[c](c1)[Au-]1([c]3cc(C(C)(C)C)ccc3-2)[c]2n3ccccc3c[n+]2Cc2cccc[n+]21.F[P-](F)(F)(F)(F)F` [BGC19b], for which the “NMR Conversion, Cationic (b form), N-AcMet” value (“NMR Conversion … N-AcMet” below) in data set [1] was determined as 0%. For the same compound, in data set [2], the “NMR Conversion, Cationic (b form), N-AcCys” value (“NMR Conversion … N-AcCys” for short) is 100%. For the same compound, in data set [3], the “NMR Conversion, Cationic (b form), N-AcHis” value (“NMR Conversion … N-AcHis” for short) stood at 100%.
With `C[n+]1ccn2[c]1[Au-]1([c]3cc(C(C)(C)C)ccc3-c3ccc(C(C)(C)C)c[c]31)[n+]1ccncc1C2.F[P-](F)(F)(F)(F)F` [BGC17b], the “NMR Conversion … N-AcMet” value in data set [1] is 0%. In addition, in data set [2], the “NMR Conversion … N-AcCys” value is recorded as 100%. Moreover, the “NMR Conversion … N-AcHis” value in data set [3] was determined as 100%.
`Cc1cc[n+]2c(c1)Cn1cc[n+](C)[c]1[Au-]21[c]2cc(C(C)(C)C)ccc2-c2ccc(C(C)(C)C)c[c]21.F[P-](F)(F)(F)(F)F` [BGC14b]: in data set [1], the “NMR Conversion … N-AcMet” value stood at 0%. Also, the “NMR Conversion … N-AcCys” value in data set [2] worked out at 100%. Moreover, the “NMR Conversion … N-AcHis” value in data set [3] amounted to 100%.
For `Cc1cccc2[n+]1[Au-]1([c]3cc(C(C)(C)C)ccc3-c3ccc(C(C)(C)C)c[c]31)[c]1n(cc[n+]1C)C2.F[P-](F)(F)(F)(F)F` [BGC13b], in data set [1], the “NMR Conversion … N-AcMet” value is 0%. In addition, the “NMR Conversion … N-AcCys” value in data set [2] is 100%. Besides, in data set [3], the “NMR Conversion … N-AcHis” value worked out at 100%.
As to `COc1cc[n+]2c(c1)Cn1cc[n+](C)[c]1[Au-]21[c]2cc(C(C)(C)C)ccc2-c2ccc(C(C)(C)C)c[c]21.F[P-](F)(F)(F)(F)F` [BGC15b], in data set [1], the “NMR Conversion … N-AcMet” value is listed as 0%. Also, in data set [2], the “NMR Conversion … N-AcCys” value was 100%. For the same compound, the “NMR Conversion … N-AcHis” value in data set [3] turned out to be 100%.
`C[n+]1[c]2n(c3ccccc31)Cc1cccc[n+]1[Au-]21[c]2cc(C(C)(C)C)ccc2-c2ccc(C(C)(C)C)c[c]21.F[P-](F)(F)(F)(F)F` [BGC18b]: the “NMR Conversion … N-AcMet” value in data set [1] is given as 0%.
In the case of `C[n+]1ccn2[c]1[Au-]1([c]3cc(C(C)(C)C)ccc3-c3ccc(C(C)(C)C)c[c]31)[n+]1c(ccc3ccccc31)C2.F[P-](F)(F)(F)(F)F` [BGC16b], the “NMR Conversion … N-AcMet” value in data set [1] came to 0%. The “NMR Conversion … N-AcCys” value in data set [2] came to 100%.
For the compound `C[n+]1ccn2[c]1[Au-]1([c]3cc(C(C)(C)C)ccc3-c3ccc(C(C)(C)C)c[c]31)[n+]1ccccc1C2.F[P-](F)(F)(F)(F)F` [BGC12b], the “NMR Conversion … N-AcMet” value in data set [1] was determined as 0%. The “NMR Conversion … N-AcCys” value in data set [2] is 100%. The “NMR Conversion … N-AcHis” value in data set [3] worked out at 92%.
